According to patent publication US4277393 (dated 1981):
*: point of attachment. Boc = CC(C)(C)OC(=O)*; Bn = c1ccc(C*)cc1

Experiment: general procedure: solution-phase peptide synthesis; DCC/HOSU, WSC/HOBT, azide method (isoamyl nitrite), ONP active esters
Conditions: coupling step
“BOC-Asn-Lys[Cbz(o-Cl)]-Phe-His-Thr(Bzl)-Phe-Pro-OH” showed a step yield of 90.7%.
With “BOC-Asn-Lys[Cbz(o-Cl)]-Phe-His-Thr(Bzl)-Phe-Pro-Gln-Thr(Bzl)-Ala-Ile-Gly-Val-Gly-Ala-Pro-NH2” the step yield was 85.3%.
With Boc-QT(Bn)AIG-OH the step yield was 48.7%.
For BOC-Asn-Lys[Cbz(o-Cl)]-Phe-His-OMe, the step yield was 49%.
In the case of “BOC-Tyr[Bzl(Cl2)]-Thr(Bzl)-Gln-Asp(OBzl)-Phe-OH”, the step yield is reported as 86%.
Boc-VGAP-NH2 gave a step yield of 85.9%.
